Results are given in words; binding and its absence hold for the method and conditions named. In cells and extracts the contact can be indirect. Some binding calls cover weakened binding; strength is not graded here. For some assays here: Where a sequence is shown, tags or fusion partners need not be part of it.
Key:
[1] = target: U1-A (human (endogenous in HeLa)) (UniProt P09012); assay: co-IP; endogenous proteins from HeLa nuclear extract; antibody against the bait (anti-SmB/B' Y12, anti-U1A or anti-RBM39) on Protein G Dynabeads; TBS-0.05% NP-40, 1.5 h, 4 °C; without nuclease (RNAse inhibitor); western blot
FLAG-RBM39 (human) = target: T1, FLAG-RBM39 (human) (UniProt Q14498); assay: co-IP; FLAG immunoprecipitation (FLAG-M2 matrix) of FLAG-RBM39 constructs from total extracts of transiently transfected HeLa cells; low-salt buffer with 0.5% Triton-X-100, NaCl adjusted to 150 mM; western blot with anti-SF3A3 and anti-U1-C
T1 sequence: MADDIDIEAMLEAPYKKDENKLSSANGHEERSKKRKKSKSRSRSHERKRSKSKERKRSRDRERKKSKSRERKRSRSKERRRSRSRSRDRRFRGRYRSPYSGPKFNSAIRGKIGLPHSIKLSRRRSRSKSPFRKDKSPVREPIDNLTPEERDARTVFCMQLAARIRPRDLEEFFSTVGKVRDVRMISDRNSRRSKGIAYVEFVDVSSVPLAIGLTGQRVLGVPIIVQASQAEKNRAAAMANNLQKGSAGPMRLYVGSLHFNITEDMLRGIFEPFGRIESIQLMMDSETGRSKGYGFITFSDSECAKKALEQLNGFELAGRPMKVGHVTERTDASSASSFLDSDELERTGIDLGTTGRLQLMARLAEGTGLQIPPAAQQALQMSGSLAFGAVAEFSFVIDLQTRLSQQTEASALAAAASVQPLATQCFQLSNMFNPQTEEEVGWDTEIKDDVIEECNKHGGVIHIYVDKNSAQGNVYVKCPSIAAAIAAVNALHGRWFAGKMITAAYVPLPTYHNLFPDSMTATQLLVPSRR

Amino acid sequences for entries named in this document (tags omitted).
UniProt P09012: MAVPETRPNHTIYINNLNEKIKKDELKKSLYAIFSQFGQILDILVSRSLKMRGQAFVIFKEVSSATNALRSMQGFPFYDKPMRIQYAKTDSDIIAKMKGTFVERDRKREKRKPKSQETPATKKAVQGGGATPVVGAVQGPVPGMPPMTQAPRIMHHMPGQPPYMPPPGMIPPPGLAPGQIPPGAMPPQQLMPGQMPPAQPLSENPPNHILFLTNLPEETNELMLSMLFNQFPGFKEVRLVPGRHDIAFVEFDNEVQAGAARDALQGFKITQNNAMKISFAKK
UniProt P09234: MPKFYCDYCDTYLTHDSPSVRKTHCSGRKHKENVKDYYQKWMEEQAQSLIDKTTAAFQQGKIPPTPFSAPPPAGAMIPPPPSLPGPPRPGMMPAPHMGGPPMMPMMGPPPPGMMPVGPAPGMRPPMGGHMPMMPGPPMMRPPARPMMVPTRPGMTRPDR

## U1-C (from UniProt P09234 1-159)
[1]
  binding: binds
FLAG-RBM39 (human)
  binding: no binding
